At least one read-out could not be matched to a standard name with certainty.
Experiment: Bioavailability study in mice
Type: in vivo
Settings: conclusion from Table 7

Cc1ccc(NC(=O)c2cc(C(F)(F)F)cc(C(F)(F)F)c2)cc1Nc1nccc(-c2cccnc2)n1.Cc1ccc(S(=O)(=O)O)cc1 [AN-019T, (3,5-Bis trifluoromethyl)-N-[4-methyl-3-(4-pyridin-3-yl-pyrimidin-2-ylamino)-phenyl]-benzamide 4-toluene sulfonate monohydrate]
Bioavailability compared with AN-019: more bioavailable than AN-019

— US8735415B2, “Acid addition salts of (3,5-Bis trifluoromethyl)-N-[4-methyl-3-(4-pyridin-3yl-pyrimidin-2ylamino)-phenyl]-benzamide” (Natco Pharma Limited, priority 2004, dated 2014)
